Test results published in the supplement of paper PMC5949888.
Most values lie at the floor of the assay. Slopes are relative: functional sequences can read slightly below zero.

test system: Saccharomyces cerevisiae PS128 hsf1 delta, HSF1(1-493) fusion; assay: growth estimate (transactivation domain function in HSF1 fusion, heat-shock survival) (a.u. (slope of normalised read count over time)); higher = stronger growth at 37°C, i.e. more transactivation activity; conditions: library: random library
Procedure: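 Random 60-nt DNA library encoding peptides of up to 20 aa, fused to the C-terminus of yeast HSF1 residues 1-493 (C-terminal TAD deleted) and expressed from the native HSF1 promoter on a CEN plasmid in hsf1-deleted S. cerevisiae PS128. Cells were selected at 37°C on -trp 5-FOA plates for 0, 2, 4, 6 and 8 days and amplicons were sequenced. Growth estimate is the slope of a robust linear fit of total-sum-normalised read counts (normalised to the first time point) over time, using at least 2 replicates. Sequences are classed functional (TAD activity) above a threshold of -0.13, set from stop-codon control sequences.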

Substance	growth estimate
RKSMHRPTVRYCQGTALADL	< -0.25
RTARTFGAYHGESVLQG	< -0.25
MLTTIREPSLG	< -0.25
CYSVRAWRHEPRTE	< -0.25
WSGIGTVCKLGTSYVHVAAV	< -0.25
AWCLTEVHYSSKFLPDMHHA	< -0.25
SVKCQ	< -0.25
CLSSAQTSRIPYRYI	< -0.25
RRHRRQG	< -0.25
FIFW	< -0.25
MVAAFAVARFVTSSRDTLIR	< -0.25
RVRRSFFRLRNRNVLMQ	< -0.25
LDKPVGV	< -0.25
TLWEADTSGGDVGP	< -0.25
PYCVVPARD	< -0.25
LLPSPARVPPQLINYRTFRS	< -0.25
CRQNGAVLTTNSNGVELPQS	< -0.25
FGLR	< -0.25
LWVRATNIRDA	< -0.25
VHKVNALKLCYFLISVRLIL	< -0.25
TAI	< -0.25
SYRRGVGA	< -0.25
SRRGHTVTAAWAWW	< -0.25
QQESWN	< -0.25
NSSHGGSKRLFKCNAS	< -0.25
RPDASSEGSEVHHNTFTSRA	< -0.25

Substance	growth estimate
GSSDR	< -0.25
TVEGGGRDNRSL	< -0.25
YGGIDAWSGD	-0.191
GELLIYAMTRCPGSIAS	< -0.25
QAHDQYRIVVAVCLVLRYSD	< -0.25
GRDSLWYSSAIVLHHGMIET	< -0.25
FTPL	< -0.25
CKW	< -0.25
RTTLFF	< -0.25
DNATFWSLDW	-0.25
RPHR	< -0.25
DFGRDRGKPFIRSIASPFSN	< -0.25
FVVKFSTRSYAQKSKARSGD	< -0.25
LTPPKTV	< -0.25
YQL	< -0.25
CPGLYPKA	< -0.25
SLKLYLRPA	< -0.25
IKYGARSQG	< -0.25
YSTAGFWARAGQLSTHVLSV	< -0.25
LPRVQYAYYGRLNSWTSCNT	< -0.25
GEARGAVIYAPSVWWLTHQH	< -0.25
TAVRHNMDCSWM	< -0.25
VGGRLVVPSTANISVGEYCA	< -0.25
AGRMMRNYRFVAPRRLSRVS	< -0.25
TIGPEC	< -0.25
SLCAHWLCCHWQMVTCSSTE	< -0.25

Substance	growth estimate
ASTDYNVGGNVTYMRRCCAD	-0.198
AKKICRGPRRAFFQPWLTSS	< -0.25
MRYVGPVRASLERKDCV	< -0.25
GWICLW	< -0.25
QIKGAVFRVLYYKVREVQ	< -0.25
HRGGLASTT	< -0.25
PSSEGPVSND	< -0.25
LRFWQRFDIGPLFPVDAE	< -0.25
RVSWSPRGSMESTIAPGSS	-0.243
NISSSTLKGSMIARIRSFCE	< -0.25
RLSGYCETILRSDFIMDLRR	< -0.25
LPARLRPLSEGVEV	< -0.25
ALSGMSQWT	< -0.25
EASVQEGGTISITVRSGD	< -0.25
RTASQLRAGLVVPDWF	< -0.25
MPSKGFYI	< -0.25
PSAIHWCLIHQELVHPTRPI	< -0.25
GNRRFQHQE	< -0.25
QVRGDPIGGRSCSPRTRWLA	< -0.25
LSARKSGSPFGGSFAPLCVS	< -0.25
LAVEGIASFEKCMAIEAVLP	< -0.25
FGECGSCVRPPTIGITAMVR	< -0.25
MCKYTSLHRALAVTGMVRKL	< -0.25
FVSYILTVSVGRRKYTNSRL	< -0.25
YRVDCNNIVSAYLLAFLVFV	-0.241
ADVATSQIGWVSLKPWIARA	< -0.25

Substance	growth estimate
QKLYL	< -0.25
SKLQFVSSDDRL	< -0.25
SSFLREGFRCKERR	< -0.25
GGCYGGK	< -0.25
TAQVLGTISCVCDRGPYFAH	< -0.25
GSRGRTM	< -0.25
FRRNREFKRSYD	< -0.25
AMWL	< -0.25
SAMRYSGSKGEDMSHRRIC	< -0.25
SLLSRPVDCAGWVRRVGKAI	< -0.25
LVVA	< -0.25
SDTVMEQTSNEINWGGWYGP	< -0.25
RVVAGGPLLV	< -0.25
PGSRSVDFC	< -0.25
LGLSKTGMVSPSCTIYATCP	< -0.25
ISISFGTA	< -0.25
RYTTVIKPWDSNQ	< -0.25
LAGVSEADRVAGSRMAILNY	< -0.25
CYSIQDTLLPTPPGCGQVSG	< -0.25
CLEVLALNRHGAERMLRLTQ	< -0.25
SGSSVMDSP	< -0.25
IGVLYGLRVVKTCAGMPSSV	< -0.25
QHGVKFIARSGALCTRLRDC	< -0.25
KRNWIIEDGLCSSRRGPGAT	< -0.25
GLGPNSILKAADVTSPPVLR	< -0.25
RGLDYGRVMYIMILSDLFYY	< -0.25

Reprinted at random: 2 records from the list, in no set order.
Substance	growth estimate
LVVA	< -0.25
RVVAGGPLLV	< -0.25

Carrying on.

Substance	growth estimate
RRP	< -0.25
ECLFRHNVTGWHVQSSGIFG	< -0.25
PPFTFVYNDNTPPGGREQAI	< -0.25
GTVGPGCVLSWYYHALHCSD	< -0.25
VNALRWLGRKR	< -0.25
DRHK	< -0.25
RGSAALDLFPVAMNTENRLF	< -0.25
EIRFRGIAFPTFICLTALGR	-0.248
PHHLCSRFNSKM	< -0.25
GIGRLRLGSARERN	< -0.25
EHYSLPFGESMRGKKGG	< -0.25
RGYRDY	< -0.25
LRMA	< -0.25
LMEFSNLDPSS	< -0.25
SNRIQGLLTDSELP	< -0.25
VSKAACILVIDSEGYEAGDR	< -0.25
CHVGS	< -0.25
TMY	< -0.25
TFRTSRVLYPENDS	< -0.25
SVAGNMGTKTSRFRL	< -0.25
GTCVVCT	< -0.25
LSWFFLADVENSDLDTEGNG	0.98
VQLRSGQISVGRAKASLVAS	< -0.25
LMELCLTWCAPLSRNVRSQS	< -0.25
SDHGDQGPLREC	< -0.25
RVFLTLEMSSDPMRLFSRRS	-0.245

Substance	growth estimate
AYDQSFDI	< -0.25
MFLCDPGPVSAAHREDL	< -0.25
LALVPVLVRTESVFRVVDIV	< -0.25
CIRLELIKSGRRRIYSR	< -0.25
EVEANTKLLQAIDELCTVWR	< -0.25
KIDYY	-0.241
FDRASCLGLKRKHLVRLTVC	< -0.25
DQSRFLALGGVRSPHLCHAG	< -0.25
RLTNELSFTRQSPVGGFHDS	< -0.25
KSWIHSSAEERQGVRDSLWG	< -0.25
AFRRVRQNPSGLMAVSKYIR	< -0.25
TSDRPRNCG	< -0.25
FWTNVVTIRGVQSRCDASSL	< -0.25
ERACLLISERSRHVPEPHTQ	< -0.25
GWRC	< -0.25
QGGYDLGWRVSSAKSRKPCG	< -0.25
TPGSIYRQRRAGQASRY	< -0.25
YLIIPAR	< -0.25
IIGCLAAGVREIAASSMNRI	< -0.25
PIRHSYIDYSACLLVRPGKA	< -0.25
FRR	< -0.25
RLGRGALLFLISGHENKLRQ	< -0.25

An excerpt of these results, with each value named:
AFRRVRQNPSGLMAVSKYIR
  growth estimate: < -0.25
TSDRPRNCG
  growth estimate: < -0.25
FWTNVVTIRGVQSRCDASSL
  growth estimate: < -0.25
